# Data source: PubChem BioAssay AID652243 (Drosophila RNAi Screening Center, 2013)
# Assay: 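Fly regulators of androgen-dependent reporter output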 (primary screen)
# Cells: Drosophila S2R+ cells
# Reagent: long dsRNA against Drosophila genes
# Duration: 72 h (48 h, then 24 h hormone)
# Conditions: synthetic androgen R1881 at 10 nM for 24 h
# Measured: 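Per-well raw luminescence of the androgen-driven firefly reporter and of the Renilla control, two replicates each, without normalisation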
# Direction: firefly reporter light: higher = more light from androgen-responsive reporter; Renilla control light: higher = more constitutive control signal (cell number, transfection)
# Call rule: 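Hit when the log firefly-to-Renilla ratio dropped or increased by a fixed fold versus the mean of GFP or LacZ controls across duplicate plates; lowering cut given as 1.5 and as 3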
# Meaning of the calls: active = hit: reporter lowered or raised; inactive = no hit
# The deposit covers about 24,000 reagents; shown is a random part of those with a known target gene and a result. Of all reagents, 246 (1%) got an active call. 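Plates not normalised; calls are printed but the firefly/Renilla ratio behind them is not deposited; fold cut for lowering reported inconsistently.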 Raw values are not corrected between plates. Reagents against one gene are numbered here. The record does not give: the amount of reagent.
Gene,reagent,"firefly reporter light, replicate 1","firefly reporter light, replicate 2","Renilla control light, replicate 1","Renilla control light, replicate 2",outcome
kumpel,1,1.33e5,1.77e5,2.55e6,2.57e6,inactive
kumpel,2,2.27e5,2.34e5,2.19e6,1.94e6,inactive
kumpel,3,2.54e5,1.75e5,2.83e6,2.93e6,inactive
kumpel,4,2.24e5,1.72e5,2.15e6,2.48e6,inactive
kumpel,5,1.91e5,2.68e5,2.15e6,2.90e6,inactive
kumpel,6,2.44e5,2.43e5,3.49e6,3.18e6,inactive
kumpel,7,8.52e5,8.66e5,1.18e6,1.21e6,inactive
kumpel,8,4.25e5,3.31e5,5.55e5,4.84e5,inactive
Sec24CD,1,8.38e5,8.85e5,3.98e6,1.50e6,inactive
mRpS10,1,1.53e5,1.83e5,3.02e6,3.04e6,inactive
CG7798,1,75226,72853,8.67e5,8.67e5,inactive
Sans,1,8.06e5,8.71e5,1.14e6,1.39e6,inactive
Sans,2,6.09e5,5.03e5,1.55e6,1.46e6,inactive
AstC-R1,1,2.73e5,3.05e5,2.29e6,2.97e6,inactive
AstC-R1,2,2.62e5,3.65e5,6.17e5,6.17e5,inactive
Nna1,1,59797,71204,4.92e5,5.53e5,inactive
Nna1,2,3.85e5,3.25e5,6.97e5,5.99e5,inactive
CG8187,1,6.71e5,1.04e6,2.06e6,2.33e6,inactive
Fbp2,1,7.18e5,8.77e5,1.38e6,2.02e6,inactive
Fbp2,2,5.45e5,5.79e5,1.03e6,1.20e6,inactive
brat,1,7.83e5,8.02e5,1.72e6,1.54e6,inactive
brat,2,7.39e5,9.24e5,1.53e6,2.03e6,inactive
brat,3,5.34e5,4.44e5,1.38e6,1.52e6,inactive
CG13760,1,1.66e5,2.86e5,3.00e6,2.57e6,inactive
Sr-CII,1,1.10e5,1.19e5,1.22e6,1.16e6,inactive
Sr-CII,2,2.50e5,2.57e5,5.51e5,3.13e5,inactive
tgy,1,3.12e5,1.74e5,1.09e6,5.95e5,inactive
Dh44-R2,1,4.66e5,2.86e5,2.55e6,1.97e6,inactive
Dh44-R2,2,3.47e5,2.37e5,1.41e6,1.67e6,inactive
Appl,1,44083,35417,3.24e5,3.63e5,inactive
Appl,2,4.73e5,3.92e5,3.93e5,8.37e5,inactive
CG15022,1,1.57e5,1.69e5,8.67e5,9.93e5,inactive
CG15022,2,7.52e5,7.52e5,8.27e5,8.12e5,inactive
eIF3k,1,9.08e5,8.80e5,2.36e6,3.05e6,inactive
eIF3k,2,5.97e5,5.00e5,7.18e5,9.08e5,inactive
dsh,1,6.37e5,4.50e5,3.52e6,3.29e6,inactive
dsh,2,6.85e5,5.68e5,1.12e6,9.35e5,inactive
CG2269,1,7.19e5,5.54e5,1.11e6,1.23e6,inactive
CG7432,1,3.34e5,3.13e5,3.27e6,3.28e6,inactive
CG31551,1,4.38e5,5.25e5,3.85e6,3.21e6,inactive
CG31551,2,3.87e5,6.32e5,9.77e5,2.14e6,inactive
CG31551,3,2.41e5,2.24e5,7.28e5,8.28e5,inactive
CG33912,1,4.36e5,4.88e5,1.08e6,1.11e6,inactive
CG34223,1,8.34e5,8.99e5,2.17e6,1.92e6,inactive
Grl62c,1,7.61e5,6.75e5,1.89e6,2.50e6,inactive
ppk11,1,2.03e5,1.54e5,9.74e5,7.32e5,inactive
Fim,1,1.52e5,1.37e5,9.32e5,7.98e5,inactive
CG32054,1,2.41e5,1.94e5,2.74e6,1.40e6,inactive
CG32054,2,5.26e5,6.02e5,5.34e5,5.57e5,inactive
wa-cup,1,1.03e5,1.00e5,2.36e6,2.03e6,inactive
CG6928,1,7.36e5,8.72e5,1.29e6,1.49e6,inactive
Sirt6,1,1.66e5,1.62e5,2.63e6,3.12e6,inactive
Sirt6,2,5.72e5,6.83e5,1.56e6,1.91e6,inactive
CG1631,1,1.54e5,90485,8.12e5,4.10e5,inactive
CG14837,1,1.32e5,1.36e5,1.59e6,1.46e6,inactive
Pdk,1,1.55e6,3.98e5,2.06e6,6.09e5,inactive
Pdk,2,,,,,inactive
Pdk,3,,,,,inactive
